The list shows a part of the results.
Legend:
Test in all cases: log2 fold change, soluble protein after heating vs DMSO (PISA); higher = thermal stabilisation; K562 lysate, 10 uM; active = over 0.2 and 3.5 SD of the protein, either way, in both replicates (recomputed)
vemurafenib = compound: CCCS(=O)(=O)Nc1ccc(F)c(C(=O)c2c[nH]c3ncc(-c4ccc(Cl)cc4)cc23)c1F [vemurafenib]
Method in brief: (§1)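 The values are log-two fold changes in thermal stability compared with solvent controls and come from duplicates. They were obtained by TMTpro 16plex LC-MS/MS, with channel sums equalised, on the supernatant after 21,000xg for 90 min. That supernatant came from crude K562 extract at 1 mg/mL protein treated with 10 μM compound for 30 min, heated for 3 min across 48°C-58°C, pooled and brought to 0.5% NP-40 at 4°C.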

Protein sequences, listed by entry. Tags and fused reporters are not part of them. Lines headed by an entry give the natural chain unless they say otherwise; changes in a name come on top.
UniProt Q96A37: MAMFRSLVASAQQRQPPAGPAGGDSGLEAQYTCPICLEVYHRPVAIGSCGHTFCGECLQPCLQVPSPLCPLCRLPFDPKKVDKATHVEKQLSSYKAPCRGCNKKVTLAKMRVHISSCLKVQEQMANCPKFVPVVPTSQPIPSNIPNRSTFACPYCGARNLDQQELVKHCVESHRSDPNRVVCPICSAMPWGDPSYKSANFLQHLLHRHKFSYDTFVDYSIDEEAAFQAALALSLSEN
UniProt Q969K3: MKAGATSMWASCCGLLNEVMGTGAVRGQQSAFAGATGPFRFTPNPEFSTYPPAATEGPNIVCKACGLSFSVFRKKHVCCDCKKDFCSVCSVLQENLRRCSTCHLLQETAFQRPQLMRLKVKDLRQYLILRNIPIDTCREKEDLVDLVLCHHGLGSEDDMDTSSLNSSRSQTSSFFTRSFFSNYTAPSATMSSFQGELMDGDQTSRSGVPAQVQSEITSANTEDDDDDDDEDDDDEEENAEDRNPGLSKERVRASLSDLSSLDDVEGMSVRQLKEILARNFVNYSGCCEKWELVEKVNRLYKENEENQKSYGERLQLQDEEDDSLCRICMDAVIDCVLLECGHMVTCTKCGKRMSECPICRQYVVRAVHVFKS
UniProt O75695: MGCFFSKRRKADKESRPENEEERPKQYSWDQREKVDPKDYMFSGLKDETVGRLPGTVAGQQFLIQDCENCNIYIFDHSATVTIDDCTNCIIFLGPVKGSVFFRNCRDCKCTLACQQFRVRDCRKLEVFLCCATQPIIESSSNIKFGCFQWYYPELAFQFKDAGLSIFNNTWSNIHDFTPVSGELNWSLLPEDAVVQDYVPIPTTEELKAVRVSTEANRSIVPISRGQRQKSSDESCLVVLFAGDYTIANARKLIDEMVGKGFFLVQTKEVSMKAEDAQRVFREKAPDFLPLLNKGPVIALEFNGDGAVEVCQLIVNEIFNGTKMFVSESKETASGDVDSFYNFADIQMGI
UniProt O43148, whole entry, looked up: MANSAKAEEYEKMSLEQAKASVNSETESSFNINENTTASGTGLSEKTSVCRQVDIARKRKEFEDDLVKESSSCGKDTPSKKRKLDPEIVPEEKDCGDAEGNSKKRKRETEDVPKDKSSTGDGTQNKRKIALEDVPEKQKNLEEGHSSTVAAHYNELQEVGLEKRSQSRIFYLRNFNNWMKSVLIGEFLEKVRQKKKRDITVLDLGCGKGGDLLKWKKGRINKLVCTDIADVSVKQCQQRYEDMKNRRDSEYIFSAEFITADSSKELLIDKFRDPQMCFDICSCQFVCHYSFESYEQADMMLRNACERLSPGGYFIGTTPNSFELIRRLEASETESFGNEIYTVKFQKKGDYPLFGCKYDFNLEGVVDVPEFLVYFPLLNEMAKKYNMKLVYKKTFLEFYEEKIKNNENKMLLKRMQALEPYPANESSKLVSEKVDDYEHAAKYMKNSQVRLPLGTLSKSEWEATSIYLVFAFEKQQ
UniProt P62745, whole entry, looked up: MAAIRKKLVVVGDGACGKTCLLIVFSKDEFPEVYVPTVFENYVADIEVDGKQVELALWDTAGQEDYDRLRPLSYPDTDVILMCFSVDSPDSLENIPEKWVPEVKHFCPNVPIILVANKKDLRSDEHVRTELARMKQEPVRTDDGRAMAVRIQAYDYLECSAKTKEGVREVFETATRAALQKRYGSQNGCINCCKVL
UniProt P08134, whole entry, looked up: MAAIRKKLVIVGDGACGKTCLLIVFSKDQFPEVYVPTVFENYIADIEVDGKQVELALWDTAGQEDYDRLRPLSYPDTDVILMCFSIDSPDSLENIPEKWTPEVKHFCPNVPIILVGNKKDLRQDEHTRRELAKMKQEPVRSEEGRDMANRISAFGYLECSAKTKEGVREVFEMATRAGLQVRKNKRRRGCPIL
UniProt O75792: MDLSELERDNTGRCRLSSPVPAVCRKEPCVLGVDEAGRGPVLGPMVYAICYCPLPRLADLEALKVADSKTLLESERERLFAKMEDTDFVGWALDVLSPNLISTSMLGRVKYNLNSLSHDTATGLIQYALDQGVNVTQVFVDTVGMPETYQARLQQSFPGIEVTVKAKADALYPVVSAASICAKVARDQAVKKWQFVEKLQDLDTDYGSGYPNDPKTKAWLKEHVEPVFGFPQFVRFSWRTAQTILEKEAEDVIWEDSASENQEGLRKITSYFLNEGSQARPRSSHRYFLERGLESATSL
UniProt O43353, whole entry, looked up: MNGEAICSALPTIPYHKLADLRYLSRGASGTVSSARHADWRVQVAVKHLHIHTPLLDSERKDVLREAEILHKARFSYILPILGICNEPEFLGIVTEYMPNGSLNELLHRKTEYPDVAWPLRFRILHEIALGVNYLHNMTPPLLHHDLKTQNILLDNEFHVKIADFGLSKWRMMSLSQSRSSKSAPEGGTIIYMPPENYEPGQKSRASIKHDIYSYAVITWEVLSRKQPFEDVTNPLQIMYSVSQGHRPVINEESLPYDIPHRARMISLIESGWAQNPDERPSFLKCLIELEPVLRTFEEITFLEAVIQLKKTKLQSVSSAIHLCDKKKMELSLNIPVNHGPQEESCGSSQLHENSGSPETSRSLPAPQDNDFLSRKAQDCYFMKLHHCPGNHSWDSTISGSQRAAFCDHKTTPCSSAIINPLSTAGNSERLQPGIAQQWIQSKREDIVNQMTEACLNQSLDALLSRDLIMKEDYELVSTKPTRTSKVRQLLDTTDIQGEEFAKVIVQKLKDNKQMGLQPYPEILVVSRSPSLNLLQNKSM
UniProt Q9H4A4: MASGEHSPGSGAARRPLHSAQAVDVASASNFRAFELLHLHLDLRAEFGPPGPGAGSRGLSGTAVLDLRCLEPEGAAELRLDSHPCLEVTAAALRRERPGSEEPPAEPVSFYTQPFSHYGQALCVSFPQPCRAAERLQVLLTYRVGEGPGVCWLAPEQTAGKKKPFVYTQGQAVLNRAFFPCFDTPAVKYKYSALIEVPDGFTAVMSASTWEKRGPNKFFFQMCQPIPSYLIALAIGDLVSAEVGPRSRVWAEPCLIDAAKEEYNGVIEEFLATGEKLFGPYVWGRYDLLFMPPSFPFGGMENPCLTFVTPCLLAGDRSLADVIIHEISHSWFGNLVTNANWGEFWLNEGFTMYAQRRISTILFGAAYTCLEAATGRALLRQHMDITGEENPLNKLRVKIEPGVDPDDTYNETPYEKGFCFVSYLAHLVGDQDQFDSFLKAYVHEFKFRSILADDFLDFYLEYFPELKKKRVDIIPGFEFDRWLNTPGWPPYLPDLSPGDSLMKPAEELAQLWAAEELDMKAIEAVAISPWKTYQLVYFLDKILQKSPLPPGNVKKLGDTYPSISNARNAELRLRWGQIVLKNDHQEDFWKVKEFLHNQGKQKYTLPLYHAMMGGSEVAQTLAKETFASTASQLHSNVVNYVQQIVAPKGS
UniProt P49247: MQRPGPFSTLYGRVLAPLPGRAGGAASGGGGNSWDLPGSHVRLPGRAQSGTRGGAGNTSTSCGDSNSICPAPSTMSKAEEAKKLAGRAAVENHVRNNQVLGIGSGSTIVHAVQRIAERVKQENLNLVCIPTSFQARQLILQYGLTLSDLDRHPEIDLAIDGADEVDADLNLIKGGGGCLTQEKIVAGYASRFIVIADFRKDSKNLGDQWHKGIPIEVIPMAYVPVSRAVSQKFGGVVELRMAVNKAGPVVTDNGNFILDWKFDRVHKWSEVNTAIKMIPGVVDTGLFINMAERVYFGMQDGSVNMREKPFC
UniProt Q9BQY4: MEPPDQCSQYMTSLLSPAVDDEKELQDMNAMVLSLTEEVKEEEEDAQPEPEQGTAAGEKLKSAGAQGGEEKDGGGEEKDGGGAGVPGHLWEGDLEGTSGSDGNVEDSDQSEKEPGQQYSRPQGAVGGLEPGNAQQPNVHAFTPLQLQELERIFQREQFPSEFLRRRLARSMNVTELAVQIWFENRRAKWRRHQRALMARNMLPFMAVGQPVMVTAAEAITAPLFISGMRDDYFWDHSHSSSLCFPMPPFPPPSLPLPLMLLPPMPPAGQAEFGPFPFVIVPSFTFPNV
UniProt P08922: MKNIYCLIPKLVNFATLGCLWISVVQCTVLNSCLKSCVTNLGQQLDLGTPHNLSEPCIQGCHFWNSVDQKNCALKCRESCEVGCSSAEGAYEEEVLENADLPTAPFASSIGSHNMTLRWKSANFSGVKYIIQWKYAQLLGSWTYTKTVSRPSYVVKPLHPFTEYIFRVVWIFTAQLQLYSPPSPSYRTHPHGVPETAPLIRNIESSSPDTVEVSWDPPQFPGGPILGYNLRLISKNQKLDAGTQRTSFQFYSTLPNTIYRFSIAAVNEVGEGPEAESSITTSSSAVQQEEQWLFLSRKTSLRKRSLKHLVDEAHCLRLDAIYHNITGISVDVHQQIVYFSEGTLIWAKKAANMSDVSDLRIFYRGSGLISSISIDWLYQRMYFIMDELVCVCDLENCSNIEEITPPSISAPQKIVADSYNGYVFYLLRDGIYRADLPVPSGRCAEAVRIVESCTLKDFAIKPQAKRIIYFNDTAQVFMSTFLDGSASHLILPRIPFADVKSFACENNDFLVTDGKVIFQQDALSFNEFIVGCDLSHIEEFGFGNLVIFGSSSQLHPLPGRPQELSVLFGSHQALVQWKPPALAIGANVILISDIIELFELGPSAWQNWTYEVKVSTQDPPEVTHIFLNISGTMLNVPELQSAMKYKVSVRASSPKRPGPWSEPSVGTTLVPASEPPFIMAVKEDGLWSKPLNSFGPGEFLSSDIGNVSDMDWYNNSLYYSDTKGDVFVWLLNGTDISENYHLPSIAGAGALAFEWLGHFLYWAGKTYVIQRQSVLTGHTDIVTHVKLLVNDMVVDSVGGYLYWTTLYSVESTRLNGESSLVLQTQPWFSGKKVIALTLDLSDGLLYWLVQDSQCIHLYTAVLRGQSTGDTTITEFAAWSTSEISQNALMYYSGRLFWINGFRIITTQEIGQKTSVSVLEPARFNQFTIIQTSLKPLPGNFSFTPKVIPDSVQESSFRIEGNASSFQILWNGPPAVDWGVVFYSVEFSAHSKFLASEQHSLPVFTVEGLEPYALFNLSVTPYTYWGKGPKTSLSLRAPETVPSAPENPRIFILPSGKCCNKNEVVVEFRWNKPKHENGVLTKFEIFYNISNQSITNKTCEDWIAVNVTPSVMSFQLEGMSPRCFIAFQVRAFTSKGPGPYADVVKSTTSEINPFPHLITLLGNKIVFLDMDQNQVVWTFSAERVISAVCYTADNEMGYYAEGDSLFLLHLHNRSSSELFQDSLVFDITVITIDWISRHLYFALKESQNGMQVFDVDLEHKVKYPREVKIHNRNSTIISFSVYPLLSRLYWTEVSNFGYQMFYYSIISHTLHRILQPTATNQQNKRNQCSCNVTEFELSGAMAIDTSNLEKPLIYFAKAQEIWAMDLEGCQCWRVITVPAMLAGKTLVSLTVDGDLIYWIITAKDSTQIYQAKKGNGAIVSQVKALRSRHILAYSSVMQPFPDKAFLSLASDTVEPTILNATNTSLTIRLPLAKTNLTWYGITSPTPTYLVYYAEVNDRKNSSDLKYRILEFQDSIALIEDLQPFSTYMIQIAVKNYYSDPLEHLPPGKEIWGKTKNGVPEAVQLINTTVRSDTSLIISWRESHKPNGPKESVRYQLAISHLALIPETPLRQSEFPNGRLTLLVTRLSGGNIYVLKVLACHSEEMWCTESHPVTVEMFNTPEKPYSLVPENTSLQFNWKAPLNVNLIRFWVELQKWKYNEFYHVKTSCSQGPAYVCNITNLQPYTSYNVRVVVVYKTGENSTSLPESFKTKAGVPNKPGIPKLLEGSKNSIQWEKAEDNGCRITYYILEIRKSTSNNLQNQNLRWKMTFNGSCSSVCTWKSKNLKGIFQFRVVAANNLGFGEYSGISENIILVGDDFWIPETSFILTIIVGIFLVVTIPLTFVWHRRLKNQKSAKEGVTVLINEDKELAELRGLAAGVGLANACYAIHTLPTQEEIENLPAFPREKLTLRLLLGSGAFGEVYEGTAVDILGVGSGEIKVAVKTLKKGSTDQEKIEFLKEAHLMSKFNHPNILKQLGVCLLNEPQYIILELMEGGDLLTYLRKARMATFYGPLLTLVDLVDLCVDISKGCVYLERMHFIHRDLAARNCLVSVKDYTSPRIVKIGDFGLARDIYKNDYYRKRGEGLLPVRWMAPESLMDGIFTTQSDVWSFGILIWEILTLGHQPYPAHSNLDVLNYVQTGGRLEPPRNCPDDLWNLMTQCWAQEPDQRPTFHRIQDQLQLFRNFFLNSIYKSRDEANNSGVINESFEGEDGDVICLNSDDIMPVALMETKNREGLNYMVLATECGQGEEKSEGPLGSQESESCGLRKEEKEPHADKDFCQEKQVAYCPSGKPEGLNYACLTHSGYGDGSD
UniProt Q8TDP1: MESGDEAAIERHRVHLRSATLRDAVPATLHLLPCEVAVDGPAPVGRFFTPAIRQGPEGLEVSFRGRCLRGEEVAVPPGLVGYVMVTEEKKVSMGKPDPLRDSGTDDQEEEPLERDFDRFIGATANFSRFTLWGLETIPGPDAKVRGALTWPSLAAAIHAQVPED

[1] = compound: CCCS(=O)(=O)Nc1ccc(F)c(C(=O)c2c[nH]c3ncc(Cl)cc23)c1F
Method in brief: as §1

barasertib = compound: CCN(CCCOc1ccc2c(Nc3cc(CC(=O)Nc4cccc(F)c4)[nH]n3)ncnc2c1)CCOP(=O)(O)O [barasertib]
Method in brief: as §1

[2] = compound: CC[C@@H]1C(=O)N(C)c2cnc(Nc3ccc(C(=O)NC4CCN(C)CC4)cc3OC)nc2N1C1CCCC1
Method in brief: as §1

volasertib = compound: CC[C@@H]1C(=O)N(C)c2cnc(Nc3ccc(C(=O)N[C@H]4CC[C@H](N5CCN(CC6CC6)CC5)CC4)cc3OC)nc2N1C(C)C [volasertib]
Method in brief: as §1

[3] = compound: CCn1c(C(=O)N(C2CC2)C2CC2)cc2c3c(ncn3C)c(Nc3cc(C)n(C)n3)nc21
Method in brief: as §1

[4] = compound: CCn1cc(-c2ccnc3[nH]c(-c4cccc(CN(C)C)c4)cc23)c(-c2ccc(NC(=O)N(C)C)cc2)n1
Method in brief: as §1

[5] = compound: CN1CCC(CNc2ccc3ncc(-c4cccc(OC(F)(F)F)c4)n3n2)CC1
Method in brief: as §1

saracatinib = compound: CN1CCN(CCOc2cc(OC3CCOCC3)c3c(Nc4c(Cl)ccc5c4OCO5)ncnc3c2)CC1 [saracatinib]
Method in brief: as §1

sotrastaurin = compound: CN1CCN(c2nc(C3=C(c4c[nH]c5ccccc45)C(=O)NC3=O)c3ccccc3n2)CC1 [sotrastaurin]
Method in brief: as §1

Measured: log2 fold change

RNF14 (UniProt Q9UBS8)
inactive: vemurafenib -0.006 | [1] 0.001 | barasertib -0.008 | [2] -0.031 | volasertib -0.001 | [3] -0.07 | [4] 0.026 | [5] -0.024 | saracatinib -0.011 | sotrastaurin 0.022

RPL17 isoform 3 (UniProt P18621)
inactive: vemurafenib -0.026 | [1] 0.002 | barasertib -0.073 | [2] 0.044 | volasertib -0.022 | [3] -0.003 | [4] 0.037 | [5] -0.02 | saracatinib 0.005 | sotrastaurin -0.015

RNF166 (UniProt Q96A37)
inactive: vemurafenib 0.007 | [1] 0.092 | barasertib 0.013 | [2] -0.024 | volasertib -0.042 | [3] -0.057 | [4] 0.085 | [5] -0.21 | saracatinib -0.152 | sotrastaurin -0.011

RNF34 isoform 2 (UniProt Q969K3)
inactive: vemurafenib -0.06 | [1] 0.042 | barasertib 0.004 | [2] 0.04 | volasertib 0.161 | [3] 0.027 | [4] 0.081 | [5] 0.015 | saracatinib -0.004 | sotrastaurin 0.021

RP2 (UniProt O75695)
inactive: vemurafenib -0.108 | [1] -0.04 | barasertib 0.06 | [2] 0.028 | volasertib -0.011 | [3] -0.108 | [4] 0.081 | [5] -0.018 | saracatinib 0.055 | sotrastaurin -0.029

Quoted at random: two records from the list.
RP2 (UniProt O75695)
inactive: vemurafenib -0.108 | [1] -0.04 | barasertib 0.06 | [2] 0.028 | volasertib -0.011 | [3] -0.108 | [4] 0.081 | [5] -0.018 | saracatinib 0.055 | sotrastaurin -0.029

RNF166 (UniProt Q96A37)
inactive: vemurafenib 0.007 | [1] 0.092 | barasertib 0.013 | [2] -0.024 | volasertib -0.042 | [3] -0.057 | [4] 0.085 | [5] -0.21 | saracatinib -0.152 | sotrastaurin -0.011

More results follow:

RPE (UniProt Q96AT9)
inactive: vemurafenib 0.022 | [1] 0.02 | barasertib -0.072 | [2] 0.026 | volasertib 0.002 | [3] 0.014 | [4] 0.072 | [5] -0.118 | saracatinib 0.001 | sotrastaurin 0.001

RIC1 (UniProt Q4ADV7)
inactive: vemurafenib -0.055 | [1] 0.021 | barasertib -0.013 | [2] 0.029 | volasertib 0.009 | [3] 0.017 | [4] -0.29 | [5] 0.004 | saracatinib -0.012 | sotrastaurin -0.008

RNF213, A0A0A0MTC1
inactive: vemurafenib 0.017 | [1] 0.025 | barasertib 0.076 | [2] -0.038 | volasertib -0.077 | [3] 0.027 | [4] -0.05 | [5] -0.053 | saracatinib 0.027 | sotrastaurin 0.043

RPL23 (UniProt P62829)
inactive: vemurafenib 0 | [1] -0.016 | barasertib -0.038 | [2] 0.007 | volasertib 0.004 | [3] -0.012 | [4] -0.045 | [5] -0.004 | saracatinib -0.004 | sotrastaurin -0.008

RNMT isoform 2 (UniProt O43148)
inactive: vemurafenib 0.009 | [1] -0.007 | barasertib -0.017 | [2] -0.006 | volasertib 0.007 | [3] 0.05 | [4] 0.025 | [5] -0.008 | saracatinib 0.005 | sotrastaurin -0.012

RHOB (UniProt P62745)
inactive: vemurafenib 0.014 | [1] 0.025 | barasertib -0.147 | [2] 0.03 | volasertib -0.009 | [3] 0.033 | [4] 0.117 | [5] 0.039 | saracatinib -0.153 | sotrastaurin -0.099

RHOC (UniProt P08134)
inactive: vemurafenib -0.024 | [1] 0.015 | barasertib -0.018 | [2] -0.059 | volasertib -0.02 | [3] 0.072 | [4] -0.133 | [5] 0.095 | saracatinib 0 | sotrastaurin -0.024

RNASEH2A (UniProt O75792)
inactive: vemurafenib -0.04 | [1] -0.004 | barasertib -0.074 | [2] -0.005 | volasertib -0.013 | [3] 0.009 | [4] -0.007 | [5] 0.04 | saracatinib 0.012 | sotrastaurin 0.007

RPL32 (UniProt P62910)
inactive: vemurafenib -0.082 | [1] 0.02 | barasertib -0.034 | [2] 0.077 | volasertib -0.022 | [3] 0.042 | [4] 0.046 | [5] -0.013 | saracatinib 0.003 | sotrastaurin -0.024

RPL12 (UniProt P30050)
inactive: vemurafenib -0.007 | [1] -0.006 | barasertib -0.03 | [2] 0.005 | volasertib -0.009 | [3] -0.047 | [4] 0.058 | [5] -0.04 | saracatinib 0.021 | sotrastaurin -0.041

RNF214 (UniProt Q8ND24)
inactive: vemurafenib -0.028 | [1] -0.005 | barasertib 0.008 | [2] 0.067 | volasertib 0.033 | [3] 0.001 | [4] 0.003 | [5] -0.015 | saracatinib 0.027 | sotrastaurin -0.03

RIPK2 (UniProt O43353)
inactive: vemurafenib 0.093 | [1] 0.078 | barasertib -0.007 | [2] 0.037 | volasertib 0.025 | [3] -0.006 | [4] 0.169 | [5] -0.061 | saracatinib 0.067 | sotrastaurin -0.012

RNPEP (UniProt Q9H4A4)
inactive: vemurafenib -0.006 | [1] 0.037 | barasertib -0.037 | [2] 0.022 | volasertib -0.012 | [3] 0.006 | [4] -0.034 | [5] 0.046 | saracatinib -0.01 | sotrastaurin 0.006

RPIA (UniProt P49247)
inactive: vemurafenib -0.007 | [1] 0.03 | barasertib -0.019 | [2] 0.025 | volasertib 0.001 | [3] -0.001 | [4] -0.216 | [5] 0.113 | saracatinib 0.016 | sotrastaurin -0.009

RNF123 (UniProt Q5XPI4)
inactive: vemurafenib 0.034 | [1] 0.003 | barasertib 0.019 | [2] -0.009 | volasertib -0.048 | [3] 0.035 | [4] -0.045 | [5] 0.004 | saracatinib -0.006 | sotrastaurin 0.03

RNF168 (UniProt Q8IYW5)
inactive: vemurafenib 0.152 | [1] 0.134 | barasertib 0.235 | [2] 0.128 | volasertib -0.062 | [3] 0.138 | [4] 0.015 | [5] 0.035 | saracatinib -0.007 | sotrastaurin -0.06

RPL15 (UniProt P61313)
inactive: vemurafenib -0.048 | [1] -0.003 | barasertib -0.087 | [2] -0.022 | volasertib 0.006 | [3] 0.019 | [4] 0 | [5] 0.012 | saracatinib -0.034 | sotrastaurin 0.016

RNF114 (UniProt Q9Y508)
inactive: vemurafenib -0.002 | [1] 0.016 | barasertib -0.026 | [2] 0.051 | volasertib 0.038 | [3] -0.001 | [4] 0.028 | [5] 0 | saracatinib 0.014 | sotrastaurin -0.102

RHOXF2 (UniProt Q9BQY4)
inactive: vemurafenib 0.069 | [1] -0.032 | barasertib 0.047 | [2] 0.145 | volasertib 0.036 | [3] -0.049 | [4] -0.241 | [5] -0.083 | saracatinib 0.055 | sotrastaurin -0.01

RPL35 (UniProt P42766)
inactive: vemurafenib -0.005 | [1] -0.144 | barasertib -0.029 | [2] 0.041 | volasertib 0.015 | [3] -0.041 | [4] -0.099 | [5] -0.003 | saracatinib -0.047 | sotrastaurin 0.01

RPL35A (UniProt P18077)
inactive: vemurafenib -0.038 | [1] 0.019 | barasertib -0.032 | [2] -0.094 | volasertib -0.021 | [3] -0.011 | [4] -0.076 | [5] 0.046 | saracatinib -0.046 | sotrastaurin -0.003

RMDN1 (UniProt Q96DB5)
inactive: vemurafenib 0.032 | [1] -0.01 | barasertib 0.017 | [2] -0.006 | volasertib -0.017 | [3] 0.02 | [4] 0.01 | [5] -0.08 | saracatinib 0.006 | sotrastaurin -0.013

RIOK3 (UniProt O14730)
inactive: vemurafenib 0.021 | [1] -0.004 | barasertib 0.004 | [2] -0.098 | volasertib -0.041 | [3] -0.032 | [4] -0.052 | [5] -0.024 | saracatinib -0.03 | sotrastaurin 0.013

ROS1 (UniProt P08922)
inactive: vemurafenib 0.027 | [1] -0.04 | barasertib 0.195 | [2] 0.1 | volasertib 0.008 | [3] -0.052 | [4] -0.124 | [5] 0.006 | saracatinib -0.04 | sotrastaurin -0.056

RNASEH2C (UniProt Q8TDP1)
inactive: vemurafenib 0.008 | [1] -0.012 | barasertib 0.042 | [2] -0.048 | volasertib 0 | [3] 0.059 | [4] -0.208 | [5] 0.017 | saracatinib 0.01 | sotrastaurin 0.021

From the supplement of paper PMC10849652
